This passage reports cell number change and AC50 results from PubChem BioAssay AID2685 (National Center for Advancing Translational Sciences (NCATS), 2010).

A short description of this experiment: qHTS Assay for Lipid Storage Modulators in Drosophila S3 Cells.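 On cell number change: cells counted by Cell Tracker Red CMTPX staining in the red channel.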 The settings on record: BODIPY lipid droplet fluorescence, 18-24 h; for cell number change: measured here: cell count max response, cells fed with added oleic acid. In outline:
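Laser-scanning cytometry quantifies lipid droplet accumulation (500–530 nm total intensity; droplet/cell object ratio) in oleic acid-fed (400 uM added) Drosophila S3 cells treated with a concentration series. 20 uM Triacsin C defined 100% inhibition.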

Setting [1] is: measured here: cell number channel AC50, cells fed with added oleic acid.
Where [2] appears, read: measured here: lipid fluorescence (Fed channel) AC50, cells fed with added oleic acid.

Some of the results follow. Further columns of the screen follow, without active or inactive calls. Most of these compounds were active or inconclusive in the main read-out, so they are no random draw. Words in brackets tell the shape of the fitted curve; partial curves, single points and poor fits give uncertain potencies.

For the compound `CCOC(=O)C1CCCN(Cc2ccc(OCC)cc2)C1` (configuration not stated), the cell number change is -75%. The AC50 under setting [1] is 29.1 µM [falling, single point].

In the case of `CCN(CC)c1ccc(C=Nc2cc(C)cc(C)c2)c(O)c1`, the cell number change was -34.4%. Also, the AC50 under setting [1] is 13 µM [falling, partial curve]. Moreover, the AC50 under setting [2] was 20.6 µM [falling, partial curve].

As to `Cc1cccc2c1NC(=O)/C2=C\C(=O)c1cccs1`, the cell number change was -42.4%. In addition, the AC50 under setting [2] is 0.58 µM [rising, full curve].

As to `Cc1ccc(NC(=O)CCCc2nc3ccccc3c(=O)[nH]2)c(Cl)c1`, the cell number change is -5.49%. Also, the AC50 under setting [2] is 3.66 µM [falling, single point].

As for `CCc1n[nH]c(=S)n1/N=C/c1ccc2c(c1)OCO2`, the cell number change is -6.74%.

As to `Cn1nc(OC(=O)Nc2cccc(Cl)c2)cc1C(F)(F)F`, the cell number change was -9.07%. For the same compound, under setting [2], the AC50 is 29.1 µM [falling, partial curve].

Regarding `CCc1nnc(NS(=O)(=O)c2ccc(N/C=C\C(=O)c3ccc(C)cc3)cc2)s1`, the cell number change was 20.5%. Moreover, under setting [2], the AC50 is 20.6 µM [rising, single point].

For the compound `COc1nc(Nc2ccc(C(C)C)cc2)nc(OC)n1`, the cell number change is -56.2%. Besides, under setting [1], the AC50 is 25.9 µM [falling, single point].

With `Cc1oc(/N=C/c2ccc3c(c2)OCO3)c(C#N)c1C`, the AC50 under setting [2] was 1.64 µM [rising, partial curve].

For the compound `O=C(/C=C/c1cccs1)Nc1ccc(N2CCOCC2)c(S(=O)(=O)Nc2cc(Cl)ccc2Cl)c1`, the cell number change is -0.23%. The AC50 under setting [2] was 4.11 µM [rising, partial curve].

For the compound `O=C(Nc1ccc(-n2cc(Br)cn2)cc1)c1ccncc1`, the cell number change is -9.47%. Besides, the AC50 under setting [2] was 10.3 µM [falling, partial curve, poor fit].

For `Cc1ncc(C(=O)O)c(C(=O)O)c1N`, the AC50 under setting [2] was 14.6 µM [rising, partial curve, poor fit].

Consider `Nc1ccc2nc(SCc3ccccc3F)sc2c1`, for which the cell number change is 34.6%. Moreover, the AC50 under setting [1] is 29.1 µM [rising, single point]. Moreover, the AC50 under setting [2] is 29.1 µM [rising, single point].

For `O=S(=O)(CCc1ccncc1)Cc1ccc2c3c(cccc13)CC2`, the cell number change worked out at 25.5%.

As to `O=C(Nc1ccc(C(F)(F)F)cc1)c1cc(S(=O)(=O)NCC2COc3ccccc3O2)ccc1F` (configuration not stated), the cell number change is -39.3%. Besides, the AC50 under setting [1] is 29.1 µM [falling, single point].

With `CCC(C)[C@H](NC(=O)[C@@H]1Cc2c([nH]c3ccccc23)C2c3ccccc3C(=O)N21)C(=O)N1CCC[C@@H]1C(=O)O` (some centres not stated), the cell number change is -22.9%. The AC50 under setting [2] is 0.0651 µM [falling, full curve, poor fit].

On to `CCN(CC(=O)Nc1cc(Cl)ccc1C)C(=O)Cc1ccsc1`, for which the cell number change was 13.8%. In addition, the AC50 under setting [2] is 4.11 µM [rising, full curve].

As to `CC(=O)CCC(=O)OCC(=O)c1ccc(C(F)(F)F)cc1`, the cell number change is -42.9%. In addition, the AC50 under setting [1] was 0.92 µM [falling, full curve, poor fit]. In addition, the AC50 under setting [2] was 1.16 µM [falling, full curve, poor fit].

As for `Cc1ccc(S(=O)(=O)N2CCC(C(=O)NCc3cccnc3)CC2)cc1`, the cell number change came out at 31.5%. Under setting [1], the AC50 is 0.411 µM [rising, full curve, poor fit]. In addition, under setting [2], the AC50 was 23.1 µM [rising, partial curve].

Consider `O=C(NNC(=O)c1cccs1)c1csc(N2CCOCC2)n1`, for which the AC50 under setting [1] is 0.146 µM [rising, full curve, poor fit].

As for `O=C(/C=C/c1cccc(Cl)c1)NCc1ccccc1`, the AC50 by setting is: under setting [1], 0.58 µM [falling, single point]; under setting [2], 0.00461 µM [falling, full curve, poor fit].

As for `COc1ccc(NC(=O)CSc2nnc(C3CC3)n2C)cc1S(=O)(=O)N1CCOCC1`, the cell number change was -5.1%. Further, the AC50 under setting [2] was 2.06 µM [rising, partial curve].

As for `C(=NCCCN1CCOCC1)c1ccc2c(c1)OCO2`, the cell number change worked out at 13.5%.

Take `O=C(OCCCc1cc2ccccc2c(=O)o1)c1ccco1`: the cell number change was -9.7%. Further, under setting [1], the AC50 was 1.16 µM [falling, single point]. In addition, the AC50 under setting [2] was 1.03 µM [falling, single point].

Consider `Cc1ccc(N2CC(C)Cn3c2nc2c3c(=O)[nH]c(=O)n2C)cc1` (configuration not stated), for which the cell number change was determined as 4.17%. Moreover, under setting [2], the AC50 was 29.1 µM [falling, single point].

Regarding `CCOc1ccc(Br)cc1CNc1ccc2c(c1)OCCO2`, the cell number change is -12.6%. Besides, the AC50 under setting [2] is 29.1 µM [falling, single point].

As for `O=C(O)C(Cc1c[nH]c2ccccc12)NS(=O)(=O)c1ccccc1` (configuration not stated), the cell number change is -6.79%. Under setting [1], the AC50 is 1.84 µM [rising, partial curve]. Moreover, the AC50 under setting [2] is 1.84 µM [rising, partial curve].

`CC(NC(=O)CCN1N=C(c2ccccc2)CCC1=O)c1ccc2c(c1)OCCO2` (configuration not stated): the cell number change is -11.5%. In addition, the AC50 under setting [1] was 0.82 µM [rising, partial curve, poor fit].

Turning to `CN(C)CCN1C(=O)C(=O)/C(=C(/O)c2ccc(OCc3ccccc3)cc2)C1c1ccncc1` (configuration not stated), the cell number change was found to be 1.57%. In addition, the AC50 under setting [2] is 4.11 µM [falling, partial curve].

Take `Cc1nc2ccccc2c(=O)n1NC(=O)c1ccccc1F`: the cell number change is -12.6%. Also, the AC50 under setting [1] is 0.00517 µM [falling, full curve, poor fit]. Besides, under setting [2], the AC50 is 0.58 µM [falling, single point].

In the case of `CC/S(C)=N/S(=O)(=O)c1ccc(C)cc1` (configuration not stated), the cell number change is -31.3%. The AC50 under setting [1] was 0.517 µM [falling, full curve, poor fit]. Moreover, the AC50 under setting [2] was 10.3 µM [falling, partial curve].

Regarding `COCCOC(=O)C1=C(C)NC2=C(C(=O)CC(C)(C)C2)C1c1ccc2c(c1)OCO2` (configuration not stated), the AC50 under setting [2] was 1.16 µM [rising, single point].

`CCOC(=O)/C=c1\s/c(=C\c2ccc(C(=O)OC)cc2)c(=O)n1CC(=O)Nc1ccccc1`: the cell number change came out at 15.3%. The AC50 under setting [1] was 6.51 µM [rising, single point].

As to `O=C(COC(=O)/C=C/c1ccc(Cl)cc1)NCCN1C(=O)CSC1=O`, the cell number change turned out to be 116%.

For `CC(=O)N1CCc2cc(S(=O)(=O)NCCC(=O)NCCc3ccccc3)ccc21`, the cell number change is -12.6%. Further, the AC50 under setting [2] was 1.3 µM [rising, partial curve].

For `COc1ccc(/C=N/NS(=O)(=O)c2ccc(F)cc2)cc1COc1cc(F)ccc1[N+](=O)[O-]`, the cell number change stood at 3.25%.

As to `O=C(C1CCCN(S(=O)(=O)c2cccs2)C1)N1CCc2ccccc2C1` (configuration not stated), the cell number change was -23%. For the same compound, the AC50 under setting [2] is 6.51 µM [rising, single point].

On to `NS(=O)(=O)c1ccc(CNc2ccc3ccccc3n2)cc1`, for which the cell number change was determined as 31.7%. The AC50 under setting [1] is 0.82 µM [rising, full curve, poor fit]. The AC50 under setting [2] was 0.116 µM [rising, single point].

Take `COc1cccc(N2CCN(C(=O)c3cccc(NC4=NC5CS(=O)(=O)CC5S4)c3)CC2)c1` (configuration not stated): the cell number change was determined as 7.2%. The AC50 under setting [1] was 0.651 µM [rising, single point]. For the same compound, under setting [2], the AC50 is 3.26 µM [falling, single point].

`CC1CCCC(C)N1/N=C/c1ccccc1F` (configuration not stated): the cell number change was -17.7%. For the same compound, the AC50 under setting [1] is 0.326 µM [rising, partial curve]. Also, the AC50 under setting [2] is 1.03 µM [rising, full curve].

For `O=C(O)c1sc2cc(C(F)(F)F)cnc2c1-c1ccccn1`, the cell number change was -56.5%. The AC50 under setting [1] was 11.6 µM [falling, partial curve, poor fit]. In addition, the AC50 under setting [2] was 5.8 µM [falling, full curve].

Regarding `Cc1cc(NC(=O)c2cc(C)on2)no1`, the cell number change is -25.3%. Further, the AC50 under setting [1] is 0.731 µM [falling, full curve]. In addition, the AC50 under setting [2] is 1.84 µM [falling, full curve].

Turning to `CC(C)c1cccc(C(C)C)c1NC(=O)c1ccccc1`, the cell number change was -24.5%.

Turning to `CC(C)(C)C(=O)C(Cc1ccccc1)n1cncn1` (configuration not stated), the cell number change amounted to 84.3%. The AC50 under setting [2] was 3.26 µM [falling, single point].

Consider `Cc1ccc(N2C(=O)c3ccc(C(=O)NCCN4CCOCC4)cc3C2=O)cc1`, for which the cell number change amounted to 17.3%. For the same compound, the AC50 under setting [2] is 0.146 µM [falling, partial curve, poor fit].

As for `O=C(CN1CCN(c2ncc(C(F)(F)F)cc2Cl)CC1)NCCNc1ncc(C(F)(F)F)cc1Cl`, the cell number change is -76.1%.

Turning to `O=C(O)Cn1ncn(-c2ccc(OC(F)(F)F)cc2)c1=O`, the AC50 was 0.00461 µM [falling, full curve, poor fit] under setting [1] and 0.0058 µM [falling, full curve, poor fit] under setting [2].

As to `COc1ccc(-c2ccc(NS(=O)(=O)c3cccc([N+](=O)[O-])c3)cc2)nn1`, the cell number change came out at 11%. Moreover, under setting [1], the AC50 was 0.00411 µM [rising, full curve, poor fit]. In addition, the AC50 under setting [2] is 29.1 µM [rising, single point].

For `CCOc1ccc(NC(=O)CCN2CCN(S(=O)(=O)c3ccc(Cl)cc3)CC2)cc1`, the cell number change turned out to be 93.5%. The AC50 under setting [1] is 14.6 µM [rising, partial curve]. Besides, under setting [2], the AC50 is 18.4 µM [rising, partial curve].

Take `C/C(=N\Nc1nc2ccccc2[nH]1)c1ccc(C)o1`: the cell number change is -9.63%. For the same compound, the AC50 under setting [2] was 18.4 µM [falling, single point].

With `CCC(C(=O)N1CCOCC1)n1c(C(=O)OC)cc2occc21` (configuration not stated), the cell number change is 20.8%. Further, the AC50 under setting [2] was 29.1 µM [rising, partial curve, poor fit].

On to `CCOCCCNc1ccc(N2C(=O)CCCC2=O)cc1[N+](=O)[O-]`, for which the cell number change was found to be 23.7%. For the same compound, the AC50 under setting [2] was 0.461 µM [falling, full curve, poor fit].

Take `Cc1ccc(S(=O)(=O)N2CCN(c3ncnc4c3cnn4-c3ccccc3)CC2)cc1`: the cell number change was found to be 8.43%. The AC50 under setting [1] is 6.51 µM [rising, single point].

For the compound `C=CCNC(=O)c1ccc(N(C)S(=O)(=O)c2ccc(OC)cc2)cc1`, the cell number change is -3.09%. Further, the AC50 under setting [2] was 29.1 µM [falling, partial curve, poor fit].

Regarding `O=S(=O)(Nc1ccncc1)c1ccc(Cl)c(Cl)c1`, the cell number change was 6.74%. Moreover, the AC50 under setting [2] was 0.58 µM [rising, single point].

For `CCCOC(=O)c1cccc(Nc2nc(-c3cccnc3)nc3ccccc23)c1`, the cell number change was -75.8%. Besides, the AC50 under setting [1] was 23.1 µM [falling, single point]. In addition, the AC50 under setting [2] was 29.1 µM [falling, single point].
